The structures appear in SMILES notation. This is a selection; strong and weak results do not stand in their true shares. Most entries show no effect beyond the scatter of the controls.
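Also: lysate desalted by size exclusion to strip endogenous ATP, peptide intensities built from DIA-NN precursor signals, and peptides missing any value discarded before comparison.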

In this assay the target is T1, UniProt P0A9T4.
T1 sequence (whole entry): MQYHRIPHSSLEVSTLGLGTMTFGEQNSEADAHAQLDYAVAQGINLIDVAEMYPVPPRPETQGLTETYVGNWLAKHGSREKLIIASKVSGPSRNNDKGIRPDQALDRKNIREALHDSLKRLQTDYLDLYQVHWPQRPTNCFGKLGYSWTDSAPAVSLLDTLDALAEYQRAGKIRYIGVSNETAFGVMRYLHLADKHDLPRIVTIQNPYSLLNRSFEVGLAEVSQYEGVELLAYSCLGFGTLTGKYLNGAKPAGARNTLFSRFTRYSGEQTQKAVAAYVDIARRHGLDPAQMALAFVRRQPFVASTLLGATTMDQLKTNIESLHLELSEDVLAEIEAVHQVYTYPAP
Briefly: log2 fold change of tryptic peptide abundance, ligand vs vehicle (limited proteolysis) (log2 ratio); higher = more trypsin-susceptible (destabilized). Conditions: peptide sequence: EALHDSLKR; peptide start residue: 112; ligand concentration: 5 mM; sample: E. coli desalted lysate; replicate design: treated before aliquoting. As to the method: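 HT-PELSA: desalted E. coli K-12 BW25113 lysate (with 12 mM MgCl2) incubated with 5 mM ATP (pH 7) or water for 30 min at 25 C, then a 4 min trypsin pulse at 22 C. Peptides were quantified by DIA-MS (4 replicates). Value is the peptide log2 fold change (treated/control); negative = stabilized. Scale: negative = ligand-stabilized region.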
Take `Nc1ncnc2c1ncn2[C@@H]1O[C@H](COP(=O)(O)OP(=O)(O)OP(=O)(O)O)[C@@H](O)[C@H]1O` [adenosine 5'-triphosphate]: the log2 fold change is -0.61.

Source of the values: the supplement of paper PMC12819154, “High-throughput peptide-centric local stability assay extends protein–ligand identification to membrane proteins, tissues and bacteria” (Nature Structural & Molecular Biology, 2025).
